{"sequences": {"note": "Chains of the proteins cited; added tags and fusions are not shown. Lines headed by an entry give the natural chain unless they say otherwise; changes in a name come on top.", "UniProt P16220": "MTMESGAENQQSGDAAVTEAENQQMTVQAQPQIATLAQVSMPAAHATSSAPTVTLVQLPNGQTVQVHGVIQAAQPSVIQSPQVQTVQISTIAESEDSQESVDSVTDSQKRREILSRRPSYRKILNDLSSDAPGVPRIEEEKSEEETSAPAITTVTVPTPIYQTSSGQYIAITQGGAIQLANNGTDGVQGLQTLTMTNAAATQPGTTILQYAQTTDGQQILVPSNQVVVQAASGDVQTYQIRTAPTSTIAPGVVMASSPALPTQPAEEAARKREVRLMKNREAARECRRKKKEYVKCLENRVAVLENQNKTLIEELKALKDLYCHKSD"}, "source": "paper PMC12192476", "key": {"[1]": {"target": "CREB1 (human (HepG2, MCF-7, Caco-2 nuclear extracts)) (UniProt P16220)", "assay": "competition with a labelled probe", "settings": "nuclear extract EMSA as described previously (ref 42), pH and temperature not given, protein in an extract"}, "[2]": {"target": "CREB1 (human (HepG2, MCF-7, Caco-2 nuclear extracts)) (UniProt P16220)", "assay": "EMSA", "settings": "complex forms prevalently with allele T, nuclear extract EMSA as described previously (ref 42), pH and temperature not given, protein in an extract"}, "[3]": {"target": "CREB1 (human (HepG2, MCF-7, Caco-2 nuclear extracts)) (UniProt P16220)", "assay": "EMSA supershift", "settings": "anti-CREB1 nearly eliminates the band and gives a supershift; nuclear extract EMSA as described previously (ref 42); pH and temperature not given; protein in an extract"}, "[4]": {"settings": "weak competitor at 100-fold excess vs T probe, HepG2, MCF-7 extracts"}, "[5]": {"settings": "25- and 100-fold excess vs T probe, no competition, HepG2, MCF-7 extracts"}}, "note": "Construct, isoform or probe ends are uncertain for at least one entry. Results from cells or extracts need not show a direct contact. For part of these data: A negative result means that nothing was seen under these conditions. For part of these data: The comparison behind a weaker result is the experiment's own reference, which may not be listed here."}
{"sequence": "AGAGATTGCCTGACGTCAGAGAGCTAG (double strand) [CREB]", "values": [{"measurement": "binding result", "setting": "[1]; 25- and 100-fold excess vs T probe, strongest competitor, HepG2, MCF-7 extracts", "value": "binds"}]}
{"sequence": "CGCTTGATGACTCAGCCGGAA (double strand) [AP1]", "values": [{"measurement": "binding result", "setting": "[1]; [4]", "value": "binds more weakly"}]}
{"sequence": "AGAGATTGCCTGTGGTCAGAGAGCTAG (double strand) [CREB_mut]", "values": [{"measurement": "binding result", "setting": "[1]; [5]", "value": "no binding"}]}
{"sequence": "ATGGCATGCGTTCCGACACAACTTCGGACAG (double strand) [SART3_A (rs2072580-A)]", "values": [{"measurement": "binding result", "setting": "[2]", "value": "binds more weakly"}, {"measurement": "binding result", "setting": "[1]; 10- and 25-fold excess, weaker competitor than allele T, HepG2, MCF-7, Caco-2 extracts", "value": "binds more weakly"}]}
{"sequence": "ATGGCATGCGTTCCGTCACAACTTCGGACAG (double strand) [SART3_T (rs2072580-T)]", "values": [{"measurement": "binding result", "setting": "[3]", "value": "binds"}, {"measurement": "binding result", "setting": "[1]; 10- and 25-fold excess, considerably stronger competitor than allele A, HepG2, MCF-7, Caco-2 extracts", "value": "binds"}]}
{"sequence": "GATTTCTTCCAATTAGTCACGCTTGAGTG (double strand) [PAX3]", "values": [{"measurement": "binding result", "setting": "[1]; [4]", "value": "binds more weakly"}]}
{"sequence": "CCTGTCTTTGCTCCTTGTTTGGGAAGCGAGTGGG (double strand) [FOXK1]", "values": [{"measurement": "binding result", "setting": "[1]; [5]", "value": "no binding"}]}
